No constants are given. Whether binding was seen depends on the method and setting. Some binding calls cover weakened binding; strength is not graded here.
Target: T1, asialofetuin (UniProt P12763)
T1 sequence (chain, glycoprotein decorated with β-galactosides (asialo form)): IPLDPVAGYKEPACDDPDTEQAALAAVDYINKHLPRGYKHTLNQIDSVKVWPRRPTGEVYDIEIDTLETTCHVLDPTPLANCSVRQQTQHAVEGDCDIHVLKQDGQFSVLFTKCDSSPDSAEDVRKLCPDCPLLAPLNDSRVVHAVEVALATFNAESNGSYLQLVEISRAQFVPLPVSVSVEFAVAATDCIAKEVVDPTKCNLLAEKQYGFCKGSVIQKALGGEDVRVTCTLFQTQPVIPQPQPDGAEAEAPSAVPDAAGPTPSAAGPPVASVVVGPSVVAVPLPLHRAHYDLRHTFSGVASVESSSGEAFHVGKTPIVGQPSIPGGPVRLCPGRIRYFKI
Test: quantitative precipitation (light scattering, absorbance at 420 nm; DLS); G3 protein ([G3] = 0-10 µM) mixed 1:1 by volume with ASF (7 µM) in PBS; both purified

Chains of the proteins cited; added tags and fusions are not shown.
UniProt P17931: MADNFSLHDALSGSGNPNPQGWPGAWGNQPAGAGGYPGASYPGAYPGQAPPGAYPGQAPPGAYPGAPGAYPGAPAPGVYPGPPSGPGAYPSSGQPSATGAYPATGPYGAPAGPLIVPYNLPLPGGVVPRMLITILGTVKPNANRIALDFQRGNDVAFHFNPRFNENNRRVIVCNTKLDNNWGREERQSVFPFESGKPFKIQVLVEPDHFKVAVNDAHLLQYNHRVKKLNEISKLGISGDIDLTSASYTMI

binding: binds
Substance: wild-type galectin-3 (from UniProt P17931 1-250)

— paper PMC6250738
